Reference: article PMC5119558, “Applying bimolecular fluorescence complementation to screen and purify aquaporin protein:protein complexes” (Protein Science : A Publication of the Protein Society, 2016)
These are yes or no findings as the source states them, for the method shown. In cells and extracts the contact can be indirect. Some results given as binding are weak or reduced against the parent protein; the word gives no strength. Where a sequence is shown, tags or fusion partners need not be part of it.

T1: YFPN‐AQP0 (6x‐His, N‐terminal part of YFP fused to the N‐terminus of human aquaporin 0) (human) (UniProt P30301)
T1 sequence: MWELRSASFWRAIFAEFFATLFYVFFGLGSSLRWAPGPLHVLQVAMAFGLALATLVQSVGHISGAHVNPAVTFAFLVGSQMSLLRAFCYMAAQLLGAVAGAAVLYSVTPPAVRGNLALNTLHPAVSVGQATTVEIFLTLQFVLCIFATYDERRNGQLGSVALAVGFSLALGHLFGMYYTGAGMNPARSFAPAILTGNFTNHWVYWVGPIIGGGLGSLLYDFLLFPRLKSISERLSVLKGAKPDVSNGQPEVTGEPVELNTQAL

T2: YFPC‐AQP0 (6x‐His, C‐terminal part of YFP fused to the N‐terminus of human aquaporin 0) (human) (UniProt P30301)
T2 sequence: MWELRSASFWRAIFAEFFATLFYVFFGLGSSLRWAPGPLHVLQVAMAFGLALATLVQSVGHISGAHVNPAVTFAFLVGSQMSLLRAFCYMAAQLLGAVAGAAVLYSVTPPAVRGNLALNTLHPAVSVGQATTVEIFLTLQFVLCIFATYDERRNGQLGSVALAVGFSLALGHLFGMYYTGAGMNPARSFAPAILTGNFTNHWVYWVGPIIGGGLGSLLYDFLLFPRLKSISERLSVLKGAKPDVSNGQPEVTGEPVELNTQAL


Key:
[1] = molecular target: T1, YFPN‐AQP0 (6x‐His, N‐terminal part of YFP fused to the N‐terminus of human aquaporin 0) (human); test: split reporter; BiFC with split YFP (SYFP2 1-154 and 155-239) in whole S. cerevisiae cells co-expressing both fusions; grown in selective SC medium at 30°C for 22 h; wide-field fluorescence microscopy; fraction of fluorescent cells (minimum 300 cells a sample, 6 to 16 transformations)
[2] = molecular target: T1, YFPN‐AQP0 (6x‐His, N‐terminal part of YFP fused to the N‐terminus of human aquaporin 0) (human); test: pull-down; YFPN-AQP0 + YFPC-AQP2 co-expressed in S. cerevisiae; membranes solubilised in DDM; HisTrap HP (Ni-NTA) by the His tag on the AQP0 part; 20 mM Hepes pH 7.8, 300 mM NaCl, 10% glycerol, 5 mM CaCl2, 0.02% DDM; imidazole gradient; eluate on SDS-PAGE, immunoblot with anti-his and anti-AQP2; the two chains are linked by the reassembled YFP
[3] = molecular target: T2, YFPC‐AQP0 (6x‐His, C‐terminal part of YFP fused to the N‐terminus of human aquaporin 0) (human); test: split reporter; BiFC with split YFP (SYFP2 1-154 and 155-239) in whole S. cerevisiae cells co-expressing both fusions; grown in selective SC medium at 30°C for 22 h; wide-field fluorescence microscopy; fraction of fluorescent cells (minimum 300 cells a sample, 6 to 16 transformations)

| binding [1] | binding [2] | binding [3] | Binder |
| --- | --- | --- | --- |
| binds |  |  | YFPC‐AQP0 (6x‐His, C‐terminal part of YFP fused to the N‐terminus of human aquaporin 0) (protein, UniProt P30301 1-263) MWELRSASFWRAIFAEFFATLFYVFFGLGSSLRWAPGPLHVLQVAMAFGLALATLVQSVGHISGAHVNPAVTFAFLVGSQMSLLRAFCYMAAQLLGAVAGAAVLYSVTPPAVRGNLALNTLHPAVSVGQATTVEIFLTLQFVLCIFATYDERRNGQLGSVALAVGFSLALGHLFGMYYTGAGMNPARSFAPAILTGNFTNHWVYWVGPIIGGGLGSLLYDFLLFPRLKSISERLSVLKGAKPDVSNGQPEVTGEPVELNTQAL |
| binds weakly | binds |  | YFPC‐AQP2 (C‐terminal part of YFP fused to the N‐terminus of human aquaporin 2) (protein, UniProt P41181 1-271) MWELRSIAFSRAVFAEFLATLLFVFFGLGSALNWPQALPSVLQIAMAFGLGIGTLVQALGHISGAHINPAVTVACLVGCHVSVLRAAFYVAAQLLGAVAGAALLHEITPADIRGDLAVNALSNSTTAGQAVTVELFLTLQLVLCIFASTDERRGENPGTPALSIGFSVALGHLLGIHYTGCSMNPARSLAPAVVTGKFDDHWVFWIGPLVGAILGSLLYNYVLFPPAKSLSERLAVLKGLEPDTDWEEREVRRRQSVELHSPQSLPRGTKA |
|  |  | binds weakly | YFPN‐AQP2 (N‐terminal part of YFP fused to the N‐terminus of human aquaporin 2) (protein, UniProt P41181 1-271) MWELRSIAFSRAVFAEFLATLLFVFFGLGSALNWPQALPSVLQIAMAFGLGIGTLVQALGHISGAHINPAVTVACLVGCHVSVLRAAFYVAAQLLGAVAGAALLHEITPADIRGDLAVNALSNSTTAGQAVTVELFLTLQLVLCIFASTDERRGENPGTPALSIGFSVALGHLLGIHYTGCSMNPARSLAPAVVTGKFDDHWVFWIGPLVGAILGSLLYNYVLFPPAKSLSERLAVLKGLEPDTDWEEREVRRRQSVELHSPQSLPRGTKA |
